# Measured values published in PubChem BioAssay AID1259354 (Paczesny and Yang Labs, IUPUI and University of Michigan, 2018).
# Amino acid sequences for entries named in this document (tags omitted). A change or cut given only in a name is not applied to a line headed by its entry.
# UniProt Q01638: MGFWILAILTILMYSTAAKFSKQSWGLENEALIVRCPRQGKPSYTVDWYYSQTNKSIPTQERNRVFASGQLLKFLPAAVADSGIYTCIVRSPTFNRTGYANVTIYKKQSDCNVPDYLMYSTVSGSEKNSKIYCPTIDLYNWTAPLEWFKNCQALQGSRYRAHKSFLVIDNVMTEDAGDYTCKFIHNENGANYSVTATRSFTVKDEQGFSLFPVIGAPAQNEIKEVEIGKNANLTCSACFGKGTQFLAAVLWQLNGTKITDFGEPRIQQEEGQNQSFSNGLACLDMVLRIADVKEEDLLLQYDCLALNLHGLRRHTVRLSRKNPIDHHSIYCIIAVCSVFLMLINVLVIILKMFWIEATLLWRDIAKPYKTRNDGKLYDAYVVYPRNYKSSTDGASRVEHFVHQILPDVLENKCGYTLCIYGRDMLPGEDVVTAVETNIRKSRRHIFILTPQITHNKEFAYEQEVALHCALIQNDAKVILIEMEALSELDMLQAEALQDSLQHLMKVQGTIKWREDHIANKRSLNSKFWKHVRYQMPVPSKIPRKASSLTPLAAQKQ
# “And” between values parts separate entries of the source, which are not always exact repeats. Identical values can stand only once. Screen size: about 78,000 compounds; about 1,800 (2.3%) were called active. The shares of active, inactive and inconclusive entries below differ from those in the screen. Cut-off read from the data, not from the text of the source: active = inhibition above about 30%; inconclusive = mostly about 10% to 28%; inactive = weaker than that.
# Molecular target: Interleukin-1 receptor-like 1 (Homo sapiens) (UniProt Q01638)
# Assay: blocks human ST2 binding to IL-33, primary screen, biochemical, AlphaLISA (AID 1259354)
# Settings: AlphaLISA ST2-Fc/biotin-IL-33 interaction, 1 h; at 17 µM, active compounds read high
row,SMILES,inhibition
1,CN(Cc1nccn1C)C(=O)c1cc(CN2CCOCC2)on1,inconclusive: 25%
2,N#Cc1cc([N+](=O)[O-])cnc1SCC(=O)Nc1ccccc1,inconclusive: 14%
3,Cc1cc(NC(=O)CN2CCN(C(=O)c3ccco3)CC2)c2ccccc2n1,inconclusive: 11%
4,Cc1ccccc1C(C(=O)NCc1c(C)noc1C)N(C)C (stereo not given),inactive
5,Cc1cc(C(F)(F)F)nc(CCNC(=O)C2CCC(=O)N(C3CC3)C2)n1 (stereo not given),inactive
6,CC(C)CCC(c1ccccc1)N(C)C(=O)C1(C(N)=O)CC1 (stereo not given),inactive
7,CCSc1sc(CC)cc1C(N)=O,inactive
8,CC(=O)Nc1ccc(-c2nc3cc4sc(-c5ccc(NC(C)=O)cc5)nc4cc3s2)cc1,inactive
9,CCOC(=O)c1nn(CC)c2c1CN(C(=O)c1cc(-c3ccsc3)n[nH]1)CC2,inactive
10,O=C(Nc1ccc2c(c1)OCO2)c1ccco1,inconclusive: 10%
11,CC1CCN(C(=O)Cn2c(=O)n(CCCC(=O)NCc3ccco3)c(=O)c3sccc32)CC1,inconclusive: 12%
12,COC(=O)[C@@H]1Cc2ncn(Cc3ccc(Cl)cc3)c2CN1C(=O)c1ccccc1,inconclusive: 19%
13,Cc1ccc(-c2cnc(-c3ccncc3)o2)cc1,inconclusive: 15%
14,O=C1NC(=Nc2ccccc2)S/C1=C/c1cccc(C(F)(F)F)c1,inconclusive: 17%
15,COc1ccc(-c2ccnc(N[C@H]3CO[C@H]4[C@@H]3OC[C@@H]4NC(=O)c3ccc(C)cc3)n2)cc1,inconclusive: 12%
16,Brc1ccc(Nc2nc(-c3cccnc3)nc3ccccc23)cc1,inconclusive: 21%
17,N#Cc1cc([N+](=O)[O-])ccc1-n1nnc2ccccc21,inconclusive: 11%
18,CCC(C)Sc1nc2c(c(=O)[nH]c(=O)n2C)n1Cc1cccc(Br)c1 (stereo not given),inconclusive: 19%
19,Cc1ccc(Cn2c(=O)n(CCC(=O)NCc3ccccc3)c(=O)c3sccc32)cc1,inconclusive: 25%
20,COc1ccc(C(=O)N2CCOC(CCCc3ccccc3)C2)c(O)c1 (stereo not given),inconclusive: 21%
21,CN(C)C1CCN(C(=O)c2cn(Cc3c(F)cccc3F)nn2)C1 (stereo not given),inconclusive: 23%
22,Cc1nn(C(=O)c2cccs2)c(C)c1Sc1ccccc1,inactive
23,Cc1cccc(C)c1NC(=O)c1ccco1,inactive
24,CN(Cc1ccccc1)Cc1cn([C@H]2CO[C@H]3[C@@H]2OC[C@@H]3NCc2ccc(-c3ccccc3)cc2)nn1,inactive

row,SMILES,inhibition
1,CC(=O)Nc1ccc(S(=O)(=O)NCCSCc2cccs2)cc1,inconclusive: 12%
2,O=C(c1ccc2nc3cc(Cl)ccc3c(=O)n2c1)N1CCOCC1,inactive
3,Cc1ccsc1C(=O)N(C)CC1CCN(CCc2cccc(C(F)(F)F)c2)CC1,inactive
4,Cc1nc(N2CCOCC2)nc(N2CCN(C)CC2)c1[N+](=O)[O-],inconclusive: 13%
5,COc1ccc(C2=NN(C(C)=O)C3(CCCCC3)O2)cc1OC,inconclusive: 20%
6,N#Cc1ccc2nc([C@H]3CCN(C4CCOCC4)C3)[nH]c2c1,inactive
7,Cc1ccc(N2CCCS2(=O)=O)cc1NC(=O)c1ccc(OC(C)C)cc1,inconclusive: 18%
8,CC(C)C(C(=O)Nc1cccc(C(F)(F)F)c1)N1C(=O)c2ccccc2C1=O (stereo not given),inactive
9,CCOC(=O)c1c(NC(=O)c2csc3c2CCCC3)sc2c1CCCC2,inactive
10,COc1ccc(-c2oc3ncnc(NCc4ccco4)c3c2-c2ccc(OC)cc2)cc1,inconclusive: 24%
11,Cc1ccccc1C(=O)N1CCC(C(=O)Nc2ccc3c(c2)OCO3)CC1,inconclusive: 13%
12,Cc1cc(S(=O)(=O)N2CCC(CO)(Cc3ccc(Cl)cc3)CC2)c(C)s1,inactive
13,CO[C@H]1COC[C@@H]1NC(=O)CCC(=O)Nc1ccccc1SC,inconclusive: 10%
14,Cc1ccc(CN2CCc3c(c(C(=O)NCc4ccccc4)nn3C)C2)o1,inactive
15,CCC(C)N(Cc1cccnc1)C(=O)c1cc(C)nn1CC (stereo not given),inactive
16,CCC(=O)Oc1ccc2c(=O)c(-c3ccc4c(c3)OCCO4)c(CC)oc2c1,inactive
17,CCCOc1ccc2oc(=O)c3c(c2c1)CCCN3C(=O)CN1CC(C)CC(C)C1 (stereo not given),inconclusive: 16%
18,CC(C)(C)NC(=O)NC12CC3CC(CC(C3)C1)C2,inconclusive: 25%
19,CCNC(=O)[C@@H]1C[C@@H](N)CN1C(=O)c1ccc(Cn2nc(C)cc2C)cc1,inconclusive: 17%
20,O=C(C1CCCN(S(=O)(=O)c2ccccc2)C1)N1CCCC(C(F)(F)F)C1 (stereo not given),inactive
21,Cc1ccc(C(=O)O)cc1S(=O)(=O)N1CCOCC1,inconclusive: 13%
22,Cc1ccccc1C1(CC(=O)N(C)Cc2ccccc2)CC(=O)N(Cc2cccnc2)C1=O (stereo not given),inactive
23,O=C(NCC1CCCN(S(=O)(=O)c2ccc(OC(F)(F)F)cc2)C1)c1cccnc1 (stereo not given),inconclusive: 12%
24,CCOc1ccc(NC(=O)c2c(NC(=O)CNCC3CCCO3)sc3c2CCC3)cc1 (stereo not given),inconclusive: 24%

row,SMILES,inhibition
1,CC(C)C(=O)Nc1nc2cc(NC(=O)C3CCN(S(=O)(=O)N4CCOCC4)CC3)ccc2s1,inconclusive: 25%
2,Cc1ncsc1CCCNC1CCC2(CCNCC2)CC1,inactive
3,CNc1ncnc2c1ncn2[C@H]1C[C@H](OP(=O)(O)O)[C@@H](COP(=O)(O)O)O1,inconclusive: 20%
4,COc1ccc(CCN(C)Cc2nc(-c3ccc(OC)c(OC)c3OC)no2)cc1OC,inconclusive: 11%
5,O=C1c2ccccc2C(=O)C1(CO)c1ccc(F)cc1,inconclusive: 21% and inconclusive: 18%
6,CCC(C)NC(=O)c1ccc(NC(=O)C2CCCO2)cc1 (stereo not given),inconclusive: 15%
7,COc1ccc(NC(=O)c2noc3c2CC(C(C)(C)C)CC3)c(OC)c1 (stereo not given),inactive
8,Cn1nc(CC2CCN(C(=O)c3cccnn3)CC2)n(-c2ccccc2)c1=O,inconclusive: 25%
9,CCCNC(C)C(=O)Nc1ccccc1C (stereo not given),inconclusive: 14%
10,Nc1ncn([C@@H]2O[C@H](CO)[C@@H](O)[C@H]2O)c(=O)n1,inconclusive: 16%
11,Cc1cc2n(n1)C(c1ccccc1)CC(c1ccc(Cl)cc1)=N2 (stereo not given),inconclusive: 17%
12,CCC(C)OC(=O)CSc1nc2ccccc2s1 (stereo not given),inactive
13,CN1C(=O)c2ccccc2Sc2ccc(C(=O)N3CCCC3)cc21,inactive
14,O=C1CC(C(=O)N2CC(=O)N(C3CCCCC3)CC(OCc3cccnc3)C2)c2ccccc21 (stereo not given),inconclusive: 13%
15,Cn1c(=O)c2c(nc(NCc3ccc4c(c3)OCO4)n2Cc2cccc(Cl)c2)n(C)c1=O,inconclusive: 13%
16,Cc1ccc(C(=O)N2CCOc3ccc(CN4C[C@@H](C)O[C@@H](C)C4)cc3C2)cc1N1CCNC1=O,inconclusive: 12%
17,COc1cc(C(=O)Nc2c3c(nn2-c2cc(C)cc(C)c2)CSC3)cc(OC)c1OC,inconclusive: 10%
18,Cc1ccc(NC(=O)/C=C/c2ccc3c(c2)OCO3)c(C)c1,inconclusive: 12%
19,Cc1ccccc1C1C(CN2CCOCC2)=C(c2ccccc2)Oc2ccccc21 (stereo not given),inconclusive: 26%
20,CCOC(=O)c1nn(CC(C)C)c2c1CN(C(=O)c1csc(-c3cccs3)n1)CC2,inconclusive: 10%
21,COc1cc(NS(=O)(=O)c2ccc(Br)cc2)c(OC)cc1Cl,inconclusive: 28%
22,O=C1Nc2ccc(S(=O)(=O)Nc3cc(Cl)ccc3Cl)c3cccc1c23,inconclusive: 10%
23,Oc1ccccc1C1=NNC(c2ccccc2)C1 (stereo not given),inconclusive: 22%
24,CCc1ccc(-c2ccc(Br)cc2)nc1,inactive

row,SMILES,inhibition
1,O=C(c1cc(-c2ccc(F)cc2)on1)N1CCc2ccccc2C1,inactive
2,O=C(CCNC(=O)c1ccccc1F)NCCc1cnc[nH]1,inconclusive: 16%
3,O=C(NCc1cccs1)c1cc(-c2ccccc2O)on1,inactive
4,COc1ccccc1C1Nc2ccc(C)cc2C(OC(C)=O)C1(C)C (stereo not given),inconclusive: 17%
5,CC(C)c1nc(C2Cc3ccccc3O2)n(-c2ccccn2)n1 (stereo not given),inconclusive: 10%
6,O=C1CC2CS(=O)(=O)CC2N1c1cccc(C(F)(F)F)c1 (stereo not given),inconclusive: 18%
7,O=S(=O)(c1ccccc1)c1nc(-c2cccc(Cl)c2)oc1N1CCOCC1,inconclusive: 20%
8,CCOc1c(CNC2CSCCSC2)cccc1OC,inconclusive: 25%
9,CC(C)NC(=O)[C@@]12CC[C@](C)(C(=O)C1)C2(C)C,inactive
10,Cc1cccc(N2CCN(C(=O)c3cccn4c(=O)c5cc6ccccc6cc5nc34)CC2)c1C,inconclusive: 11%
11,CC(C(=O)N1CCC(n2nccc2NC(=O)C(C)(C)C)CC1)N1CCCC1=O (stereo not given),inconclusive: 18%
12,Cn1c(OCc2ccc3c(c2)OCO3)nc2c1c(=O)n(Cc1ccc(F)cc1)c(=O)n2C,inconclusive: 23%
13,Cc1ccc2c(-c3cc4c(n(CC5CC5)c3=O)CCN(C(=O)C3=NN(C)C(=O)CC3)C4)cccc2n1,inconclusive: 11%
14,O=C(c1coc(=O)c2ccccc12)N1CCC2(CC1)OCCO2,inactive
15,COc1cccc(Cl)c1-c1cc(NC2CC2)nc(N)n1,inconclusive: 14%
16,O=C1N=C(N2CCOCC2)S/C1=C/c1ccc(Cl)cc1,inactive
17,N#CC1=C(N)OC2=C(C(=O)CCC2)C1c1cccnc1 (stereo not given),inactive
18,CCN(Cc1ccc(-c2ccn[nH]2)o1)C1CCS(=O)(=O)C1 (stereo not given),inconclusive: 15%
19,C=CCn1c(SCC(=O)Nc2ccc(F)c(Cl)c2)nnc1-c1cccnc1,inconclusive: 12%
20,CNC(=O)c1cc(-c2cc(OC)cc(OC)c2)ccc1Cl,inactive
21,Cc1ccc(Nc2c(-c3cccs3)nc3cnccn23)cc1,inconclusive: 10%
22,COc1ccc(C2C(C(=O)N3CCCC3)c3cc(OC)c(OC)cc3C(=O)N2C)cc1 (stereo not given),inconclusive: 18%
23,COc1ccc2c(=O)c(Oc3ccccc3)c(C(F)(F)F)oc2c1OC,inactive
